Earlier results in patent publication US20200383906A1 (Evestra, Inc., priority 2019, published 2020).
At least one compound was matched to its structure with a doubt left.

What was measured:
[1] = test system: antigonadotrophic effects, SHBG, CBG, lipoproteins; settings: postmenopausal women, 25 days; cited from earlier work
[2] = 2.0 mg orally vs. 0.05 mg parenterally; cited from earlier work

Row | SMILES | Potency of oral vs vaginal administration [1] | Factor oral dosage vs parenteral dosage with the same effect [2]
1 | C#C[C@]1(O)CC[C@H]2[C@@H]3CCc4cc(O)ccc4[C@H]3CC[C@@]21C [EE, 17α-ethinyl estradiol] | four to five times more potent | 
2 | C[C@]12CC[C@@H]3c4ccc(O)cc4CC[C@H]3[C@@H]1CC[C@@H]2O [Estradiol-17ß] |  | approximately 40
